From patent publication US20250283871A1, “COMPOSITIONS AND METHODS FOR MODULATING THE INTERACTION BETWEEN SS18-SSX FUSION ONCOPROTEIN AND NUCLEOSOMES” (Dana-Farber Cancer Institute, Inc., priority 2020, published 2025)

System: BAF complex subunits and histone proteins
Test: Mass spectrometry proteomics of purified HA-SS18 WT and HA-SS18-SSX1 complexes (Tables 5A-5E)
Design: species or system human
Details: for Total / Unique: HA-SS18SSX1_CHR_peptides; for Total: total peptides of the identified protein; for Unique: unique peptides of the identified protein
[1] = HA-SS18SSX1_NE_peptides: protein co-purified with HA-SS18-SSX1 BAF complexes from soluble nuclear extract (NE), HEK-293T cells
[2] = HA-SS18SSX1_NE_peptides (Table 5B), HA-SS18-SSX1 BAF complex purification from soluble nuclear extract, HEK-293T
[3] = HA-SS18WT_CHR_peptides: protein identified in HA-SS18 WT BAF complex purification from nuclease-treated solubilized chromatin (CHR), HEK-293T
[4] = HA-SS18WT_NE_peptides: HA-SS18 WT complexes purified from nuclear extract (NE), HEK-293T, label = protein identified (Gene Symbol)
[5] = HA-SS18SSX1_CHR_peptides: proteins found in HA-SS18-SSX1 BAF complex purification from solubilized chromatin (CHR), HEK-293T
[6] = HA-SS18SSX1 purification, NE (soluble nuclear extract) fraction, HEK-293T, peptides per identified protein
[7] = HA-SS18WT_NE_peptides: proteins co-purified with HA-SS18 WT from nuclear extract (NE), HEK-293T
[8] = HA-SS18SSX1_CHR_peptides: protein identified in the HA-SS18-SSX1 purification from solubilized chromatin (CHR), HEK-293T
[9] = HA-SS18WT_CHR_peptides: HA-SS18 WT purification from nuclease-treated solubilized chromatin (CHR), HEK-293T, label = protein identified

Substance: TUBA1B
- Total (peptides) [1]: 1
- Unique (peptides) [1]: 1

Substance: TUBA4A
- Total (peptides) [2]: 1
- Unique (peptides) [2]: 1

Substance: TUBB
- Total: 2
- Unique: 2
- Total (peptides) [1]: 2
- Unique (peptides) [1]: 2
- Total (total peptides) [3]: 1
- Unique (unique peptides) [3]: 1
- Total (peptides) [4]: 5
- Unique (peptides) [4]: 4

Substance: TUBB2B
- Total (peptides) [5]: 1
- Unique (peptides) [5]: 1
- Total (total peptides) [6]: 4
- Unique (unique peptides) [6]: 4
- Total (peptides) [7]: 2
- Unique (peptides) [7]: 2

Substance: TUBB4B
- Total (total peptides) [8]: 7
- Unique (unique peptides) [8]: 7
- Total (total peptides) [6]: 22
- Unique (unique peptides) [6]: 12
- Total (peptides) [9]: 6
- Unique (peptides) [9]: 5
- Total (peptides) [4]: 23
- Unique (peptides) [4]: 18

Substance: UNC13B
- Total (peptides) [5]: 1
- Unique (peptides) [5]: 1

Substance: URB1
- Total (total peptides) [8]: 4
- Unique (unique peptides) [8]: 4
- Total (peptides) [9]: 4
- Unique (peptides) [9]: 4

Substance: UTP20
- Total (total peptides) [8]: 68
- Unique (unique peptides) [8]: 62
- Total (peptides) [9]: 26
- Unique (peptides) [9]: 25

Substance: VDAC1
- Total (total peptides) [8]: 7
- Unique (unique peptides) [8]: 6
- Total (total peptides) [6]: 9
- Unique (unique peptides) [6]: 7
- Total (peptides) [9]: 4
- Unique (peptides) [9]: 4
- Total (peptides) [4]: 11
- Unique (peptides) [4]: 10

Substance: VIM
- Total (peptides) [1]: 1
- Unique (peptides) [1]: 1

Substance: VRK2
- Total (total peptides) [6]: 3
- Unique (unique peptides) [6]: 3
- Total (peptides) [7]: 1
- Unique (peptides) [7]: 1

Substance: VWA8
- Total (total peptides) [6]: 4
- Unique (unique peptides) [6]: 4
- Total (peptides) [7]: 2
- Unique (peptides) [7]: 2

Substance: XRCC5
- Total: 2
- Unique: 2
- Total (total peptides) [6]: 3
- Unique (unique peptides) [6]: 3

Substance: XRCC6
- Total (total peptides) [8]: 4
- Unique (unique peptides) [8]: 4
- Total (total peptides) [6]: 3
- Unique (unique peptides) [6]: 3

Substance: YBX3
- Total: 1
- Unique: 1
- Total (total peptides) [3]: 1
- Unique (unique peptides) [3]: 1

Substance: YWHAE
- Total (total peptides) [3]: 1
- Unique (unique peptides) [3]: 1

Substance: ZDBF2
- Total: 1
- Unique: 1

Substance: ZFR
- Total (total peptides) [8]: 5
- Unique (unique peptides) [8]: 4
- Total (peptides) [9]: 6
- Unique (peptides) [9]: 5

Substance: ZMYM4
- Total (total peptides) [8]: 6
- Unique (unique peptides) [8]: 5
- Total (total peptides) [3]: 2
- Unique (unique peptides) [3]: 2

Substance: ZNF142
- Total (total peptides) [3]: 2
- Unique (unique peptides) [3]: 2

Substance: ZNF292
- Total (total peptides) [8]: 9
- Unique (unique peptides) [8]: 9
- Total (peptides) [9]: 6
- Unique (peptides) [9]: 6

Substance: ZNF638
- Total: 4
- Unique: 4
- Total (total peptides) [6]: 4
- Unique (unique peptides) [6]: 4
- Total (total peptides) [3]: 2
- Unique (unique peptides) [3]: 2
- Total (peptides) [7]: 2
- Unique (peptides) [7]: 2

Substance: ZNF746 [listing 1 of 2 here]
- Total (peptides) [1]: 1
- Unique (peptides) [1]: 1

Substance: ZNF746 [listing 2 of 2 here]
- Total (peptides) [7]: 1
- Unique (peptides) [7]: 1

Substance: hANK1
- Total (peptides) [5]: 1
- Unique (peptides) [5]: 1
